The target of the test is PpCCaMK-BD (Physcomitrium patens CCaMK fused to the GAL4 DNA-binding domain) (Physcomitrium patens) (UniProt Q84UE7). In words: two-hybrid; GAL4 system in S. cerevisiae AH109; PpIPD3 on the activation domain, CCaMKs on the DNA-binding domain; growth on CSM-Leu-Trp-His-Ade at 30°C.

The chains behind the UniProt entries cited, without tags or fusion partners. Where a name states a change or a piece, a line headed by the entry shows the natural chain unless it says otherwise.
UniProt Q84UE7: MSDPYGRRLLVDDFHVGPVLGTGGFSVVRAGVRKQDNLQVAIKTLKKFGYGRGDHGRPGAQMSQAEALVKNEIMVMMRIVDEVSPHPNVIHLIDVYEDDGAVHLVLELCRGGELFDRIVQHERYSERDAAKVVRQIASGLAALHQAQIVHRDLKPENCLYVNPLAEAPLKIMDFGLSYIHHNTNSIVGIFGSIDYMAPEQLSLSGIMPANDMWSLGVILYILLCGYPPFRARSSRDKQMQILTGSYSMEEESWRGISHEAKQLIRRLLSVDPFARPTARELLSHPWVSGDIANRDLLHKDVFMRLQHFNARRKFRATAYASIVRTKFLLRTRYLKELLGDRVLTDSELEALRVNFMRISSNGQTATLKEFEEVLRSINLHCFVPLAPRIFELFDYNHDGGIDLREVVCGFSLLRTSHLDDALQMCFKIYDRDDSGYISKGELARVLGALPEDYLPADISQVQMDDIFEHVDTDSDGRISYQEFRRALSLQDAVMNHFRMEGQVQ

No constants are given. Whether binding was seen depends on the method and setting. A result given as binding can be weak or reduced; the word gives no strength.

As to “PpIPD3-AD (Physcomitrium patens IPD3 fused to the GAL4 activation domain) (from UniProt A0A7I4CGX4)”, the binding entry is on record as “binds”.

The values are drawn from publication PMC8819110.
